PubChem BioAssay AID1508597 – Cure First | 2020
Aim: 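Knock-downs altering ovarian cancer cell survival with or without PARP inhibitor rucaparib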 (primary screen). Cell system: human ovarian carcinoma lines grown from tumours: OCI-P5x (papillary serous) and OCI-C5x (clear cell). Reagents: siRNA pool against human genes, 1.25 pmol siRNA per well. Duration: 72 h or 96 h, depending on the cell culture. Treatment: rucaparib 20 µM (about IC30) or vehicle, present until read-out. Rucaparib or vehicle: Rucaparib. Cell line: OCI-C5x (clear cell). Measurement: 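Luminescent ATP-based viability assay read 72 or 96 h after transfection, depending on culture, given as normalised percent viability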. Direction: viability, normalised: higher = more viable cells remaining. Hit rule: 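a well counts as a hit if its normalised viability is under 80 percent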. Calls: active = viability under 80%; inactive = viability 80% or more.
This is an unselected part of the about 2,100 reagents, under one of the conditions tested. 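Calls flag viability under 80% in either arm, not effects specific to rucaparib; the reference for percent is not stated.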 A number with no mark means an inactive call. A reagent listed more than once was tested more than once; the source does not tell the runs apart. The record does not give: the 100% reference.

no.	gene knocked down	technical replicate	viability, normalised (%)
1	OGA	1	44.6 (active)
2	OGA	2	31.8 (active)
3	OGA	3	37.1 (active)
4	DNM3	1	44.6 (active)
5	DNM3	2	35.1 (active)
6	DNM3	3	44.2 (active)
7	PLK4	1	69.4 (active)
8	PLK4	2	23.5 (active)
9	PLK4	3	49.5 (active)
10	RAD23A	1	40.4 (active)
11	RAD23A	2	48.3 (active)
12	RAD23A	3	29.1 (active)
13	JAK1	1	38.6 (active)
14	JAK1	2	49.7 (active)
15	JAK1	3	38.9 (active)
16	CDK20	1	42.3 (active)
17	CDK20	2	49.3 (active)
18	CDK20	3	56.9 (active)
19	DDX3X	1	34.6 (active)
20	DDX3X	1	61.7 (active)
21	DDX3X	2	30.7 (active)
22	DDX3X	2	79.1 (active)
23	DDX3X	3	42.4 (active)
24	DDX3X	3	35.4 (active)

Reformatted: 2 of the entries above.
{"gene knocked down": "DDX3X", "technical replicate": "3", "viability, normalised (%)": "42.4 (active)"}
{"gene knocked down": "DDX3X", "technical replicate": "3", "viability, normalised (%)": "35.4 (active)"}
